This is an account of results in PMC6338668.

Chains of the proteins cited; added tags and fusions are not shown.
UniProt P08151: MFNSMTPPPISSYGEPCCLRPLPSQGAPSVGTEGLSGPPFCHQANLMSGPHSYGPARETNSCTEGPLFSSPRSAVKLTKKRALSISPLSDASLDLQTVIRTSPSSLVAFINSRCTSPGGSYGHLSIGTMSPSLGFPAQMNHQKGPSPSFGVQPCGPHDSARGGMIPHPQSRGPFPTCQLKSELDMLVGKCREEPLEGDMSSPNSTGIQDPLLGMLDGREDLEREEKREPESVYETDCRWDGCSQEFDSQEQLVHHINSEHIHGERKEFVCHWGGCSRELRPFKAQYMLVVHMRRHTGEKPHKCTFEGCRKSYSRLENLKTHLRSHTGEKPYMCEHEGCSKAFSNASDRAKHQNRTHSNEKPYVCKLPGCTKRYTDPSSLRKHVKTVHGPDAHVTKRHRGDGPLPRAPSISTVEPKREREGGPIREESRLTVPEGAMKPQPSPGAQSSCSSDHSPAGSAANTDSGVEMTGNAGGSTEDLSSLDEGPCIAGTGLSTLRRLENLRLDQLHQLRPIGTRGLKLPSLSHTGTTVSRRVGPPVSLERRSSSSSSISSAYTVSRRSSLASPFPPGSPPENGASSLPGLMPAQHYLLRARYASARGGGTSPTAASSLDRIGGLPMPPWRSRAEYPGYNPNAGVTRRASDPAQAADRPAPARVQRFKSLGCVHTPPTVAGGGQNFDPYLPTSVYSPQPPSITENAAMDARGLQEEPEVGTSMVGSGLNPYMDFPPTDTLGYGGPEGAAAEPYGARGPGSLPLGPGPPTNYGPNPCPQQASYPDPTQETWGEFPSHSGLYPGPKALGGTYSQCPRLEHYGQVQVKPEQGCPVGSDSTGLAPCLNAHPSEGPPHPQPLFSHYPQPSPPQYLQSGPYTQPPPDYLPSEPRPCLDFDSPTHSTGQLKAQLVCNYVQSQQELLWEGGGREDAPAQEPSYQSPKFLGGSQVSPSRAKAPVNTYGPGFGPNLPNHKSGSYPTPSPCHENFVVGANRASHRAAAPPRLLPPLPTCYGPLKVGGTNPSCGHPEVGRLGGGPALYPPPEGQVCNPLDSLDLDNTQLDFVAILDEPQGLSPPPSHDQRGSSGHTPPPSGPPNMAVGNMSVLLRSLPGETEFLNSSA
UniProt Q9BQA1: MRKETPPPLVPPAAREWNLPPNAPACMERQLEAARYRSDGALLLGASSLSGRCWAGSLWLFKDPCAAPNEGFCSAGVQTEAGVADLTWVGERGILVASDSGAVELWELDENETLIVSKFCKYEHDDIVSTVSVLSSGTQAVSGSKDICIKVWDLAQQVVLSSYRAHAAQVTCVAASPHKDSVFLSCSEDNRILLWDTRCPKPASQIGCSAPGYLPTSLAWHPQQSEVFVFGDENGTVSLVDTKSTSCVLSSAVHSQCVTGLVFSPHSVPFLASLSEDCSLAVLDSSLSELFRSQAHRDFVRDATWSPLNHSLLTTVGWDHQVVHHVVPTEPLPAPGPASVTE

No constants are given. Whether binding was seen depends on the method and setting. In cells and extracts the contact can be indirect. A yes stands for co-enrichment or nearness to the bait. Other partners may have been found.

For this assay, the target named is GLI1 with HA and FLAG tandem affinity tags (UniProt P08151). Description: affinity purification with mass spectrometry; tandem affinity purification of HA-FLAG-GLI1 from the cytoplasmic fraction of stable HEK293 cells: anti-FLAG M2 agarose, FLAG peptide elution, anti-HA agarose, HA peptide elution; SDS-PAGE, silver staining, bands sequenced by mass spectrometry.

As for “methylosome protein 50 (MEP50), endogenous in HEK293 cells (from UniProt Q9BQA1 1-342)”, the binding result was “binds”.
